Series [1] has as its target T1, GST-MAT1-2-1 (Penicillium chrysogenum PC3) (UniProt B1GVC0).
T1 sequence (looked up): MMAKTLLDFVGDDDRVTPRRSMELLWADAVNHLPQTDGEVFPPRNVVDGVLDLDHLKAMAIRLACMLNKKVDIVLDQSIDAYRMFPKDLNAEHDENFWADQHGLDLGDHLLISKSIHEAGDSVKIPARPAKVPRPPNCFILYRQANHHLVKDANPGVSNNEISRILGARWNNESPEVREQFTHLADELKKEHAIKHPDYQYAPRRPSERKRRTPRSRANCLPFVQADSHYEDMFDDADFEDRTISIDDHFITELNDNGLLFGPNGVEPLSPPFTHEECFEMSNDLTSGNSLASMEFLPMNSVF
As to the kind of experiment: EMSA. The conditions noted are these: 4 uM, without MAT1-1-1, lack of binding attributed to low protein amount (binds at 7 uM); EMSA: 20 ul reaction, 20 min at room temperature, native 4% polyacrylamide gel, 120 V 2-3 h; salt and pH not given (Ramsak et al. 2021 protocol); recombinant protein; residues 1-303; protein details: N-terminal GST; label: 32P (probe), unlabelled as competitor. Background: A gel shift assay detects complexes by their altered migration in electrophoresis.

In series [2] the target is T2, MAT1-2-1 (GST removed) (Penicillium chrysogenum PC3) (UniProt B1GVC0).
T2 sequence (looked up): T1 sequence (looked up)
As to the kind of experiment: EMSA. The conditions noted are these: 4 uM, without MAT1-1-1, lack of binding attributed to low protein amount; EMSA: 20 ul reaction, 20 min at room temperature, native 4% polyacrylamide gel, 120 V 2-3 h; salt and pH not given (Ramsak et al. 2021 protocol); recombinant protein; residues 1-303; label: 32P (probe), unlabelled as competitor.

No signal at the amounts used counts as a negative. At least one verdict rests on a figure or table, not on a statement of the authors. Tags and fusion partners may be left off the protein sequences shown.

Take “TCACGTGATCTCTATTGAGAACAATAGAA (double strand) [tom1-2]”: the binding result in series [1] and in series [2] was “no binding” in each case.

The record behind these values is publication PMC10512297, “The Penicillium chrysogenum tom1 Gene a Major Target of Transcription Factor MAT1-1-1 Encodes a Nuclear Protein Involved in Sporulation”.
